Measured values reported in patent publication US20100274500A1, “METHOD AND SYSTEM FOR MEASURING MEMBRANE POTENTIAL BASED ON FLUORESCENCE POLARIZATION” (Seng Enterprises Ltd., priority 2006, published 2010).

Experiment: Direct influence of CCCP and Nigericin on emission spectrum, polarization and lifetime of Rh123 in suspension
Details: Rh123 0.5 μg/ml suspension, no cells; CCCP 5 μM or Nigericin 5 μg/ml
Description: A suspension of Rh123 at a concentration of 0.5 μg/ml was prepared. The suspension was divided into three aliquots, each containing a volume of 1 ml. To the first part was added 2.5 μl of PBS. To the second part was added 2.5 μl CCCP at a concentration of 2 mM, so that a final concentration of 5 μM CCCP was reached. To the third part was added 2.5 μl of Nigericin, at a concentration of 2 mg/ml, so that a final concentration of 5 μg/ml Nigericin was reached.
In the first stage, the emission spectrum of the suspension was obtained, using CARY ECLIPSE. The suspensions were excited with 480 nm light and the fluorescence was measured between 500-600 nm, while the slits (emission and excitation) were 2.5 nm.
The direct influence of CCCP and/or Nigericin were tested on the same suspensions of Rh123, measuring the lifetimes in contrast to the control.

Compound	P (polarization of Rh123 in suspension)	τ (lifetime of Rh123 in suspension)
N#CC(C#N)=NNc1cccc(Cl)c1 [CCCP]	0.053 ± 0.001	4.241 ± 0.002 nsec
CO[C@@H]1C[C@@H](C[C@H]2CC[C@H](C)[C@H]([C@@H](C)C(=O)O)O2)O[C@]2(O[C@](C)([C@H]3CC[C@@](C)([C@@H]4O[C@@H]([C@H]5O[C@@](O)(CO)[C@H](C)C[C@@H]5C)C[C@@H]4C)O3)C[C@H]2C)[C@@H]1C [Nigericin]	0.056 ± 0.002	4.242 ± 0.004 nsec
